# Test results published in paper PMC7819943, “Rice protein-binding microarrays: a tool to detect cis-acting elements near promoter regions in rice”.
# Chains of the proteins cited; added tags and fusions are not shown.
# UniProt Q0JBA9, entry or part of it: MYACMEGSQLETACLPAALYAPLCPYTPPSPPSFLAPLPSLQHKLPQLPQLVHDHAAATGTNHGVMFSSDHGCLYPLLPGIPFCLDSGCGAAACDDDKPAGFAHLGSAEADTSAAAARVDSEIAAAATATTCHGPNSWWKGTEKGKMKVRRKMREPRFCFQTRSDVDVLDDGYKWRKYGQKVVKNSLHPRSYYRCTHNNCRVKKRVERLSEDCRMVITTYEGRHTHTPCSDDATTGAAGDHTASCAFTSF
# The other results are listed elsewhere or left out.
# Target: OsWRKY34 (Oryza sativa, UniProt Q0JBA9 1-250)
# Experiment: protein-binding microarray (RPBM); PBS, 2% BSA, 51.3 ng/ul salmon testes DNA, 50 uM zinc acetate, 200 nM TF, 25 C, 1 h; high values mean tight binding
# Conditions: protein: recombinant; tags: N-terminal polyhistidine and DsRed monomer fusion (pET32a); label: CyDye5-dUTP incorporated in the synthesized complementary strand; 3' TTTTT single-stranded linker to array surface; dsDNA, one strand shown
# Procedure, shortened: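 Binding signal is reported as fluorescence intensity per feature (arbitrary units) from an Axon 4000B scanner. Incubation used 200 nM of each Ni–NTA-purified, N-terminally polyhistidine- and DsRed-fused transcription factor from E. coli BL21-CodonPlus on a double-stranded custom Agilent array for 1 h at 25 °C, with 50 µM zinc acetate in the buffer, followed by washing.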
row,Sequence,binding signal
1,GGCTGCTCATTGTCGTCTCATCTGGGCTTTTCAATGGGCTCGGAGTCACCTAGTGCAG,8590 fluorescence intensity (a.u.)
2,ATATTTTTTCTGTGTTTTGCAATCTTCTATTTTACACTTTCGGAGTCACCTAGTGCAG,11200 fluorescence intensity (a.u.)
3,ATGCGTGTGGTTCTCCTGTCCGTTCTGTCATTTGGGTTTTCGGAGTCACCTAGTGCAG,20000 fluorescence intensity (a.u.)
4,TTAATTGGTCAGTCATCAGTGTGTGTTAGGAACGTACGTACGGAGTCACCTAGTGCAG,8360 fluorescence intensity (a.u.)
5,GAGAACTTGGCGGCCACCGCCTGACGGAGCCCGGGGCTCCCGGAGTCACCTAGTGCAG,8300 fluorescence intensity (a.u.)
6,GCGTTGACCTATTGACTCGTGTCGCCGTCTCGCCGAGCGACGGAGTCACCTAGTGCAG,9440 fluorescence intensity (a.u.)
7,AATGATTCCCGGCCTCTTCATTTCGCTTATGCATATACTTCGGAGTCACCTAGTGCAG,12100 fluorescence intensity (a.u.)
8,AGTTTTCTCTCCCATTTTGGCTTCGCCCCACCCACTGCCTCGGAGTCACCTAGTGCAG,10900 fluorescence intensity (a.u.)
9,CCGCCCCGACCACCGGCGGCCGCCGACACGATGTCCTCGCCGGAGTCACCTAGTGCAG,8660 fluorescence intensity (a.u.)
10,TTCGTGTATTTATGGGGTTAATTTTATTCGATTTTGAGTTCGGAGTCACCTAGTGCAG,11000 fluorescence intensity (a.u.)
11,GTGGGATTTGACTAAAATAATAAATCGGGTATTTCCCTTCCGGAGTCACCTAGTGCAG,8430 fluorescence intensity (a.u.)
12,TGCGAGCCTTGCTAGTTGCTCCGTCCGCTGTTTCGTGATACGGAGTCACCTAGTGCAG,10100 fluorescence intensity (a.u.)
13,CGAGTCACCCAGCCCAGCCAGCGCGCGCGACACGACGAAACGGAGTCACCTAGTGCAG,8910 fluorescence intensity (a.u.)
14,CCATTATGGTGTTTCTTAGTTGTTTTTTTTGCCTTTTACTCGGAGTCACCTAGTGCAG,8470 fluorescence intensity (a.u.)
15,TTTGTTCCATTTATACGACTAATTTTTCTGTCTACAATTTCGGAGTCACCTAGTGCAG,12700 fluorescence intensity (a.u.)
16,CTTCACCCATTGCAACACACGTGTATTTTTTCTAGTAAAACGGAGTCACCTAGTGCAG,11000 fluorescence intensity (a.u.)
17,CCACATATTGTGCTTGTAGCCTAGGCACGACACGGCCCGTCGGAGTCACCTAGTGCAG,8450 fluorescence intensity (a.u.)
18,CCATTTACACAGCAGGGGCGGAGATATTATTTTAGGTGGGCGGAGTCACCTAGTGCAG,8260 fluorescence intensity (a.u.)
19,TTCTTCCTGCAATGGCCTTATTCTCTACATTAATCTGATTCGGAGTCACCTAGTGCAG,9150 fluorescence intensity (a.u.)
20,CATTCATCCATCTGAAGCAGACGCCTTTGCTTTCCTCCTGCGGAGTCACCTAGTGCAG,9010 fluorescence intensity (a.u.)
21,TTTCTTTTGCATTTCTTGCTGCAGTACTGTTGCATCAATACGGAGTCACCTAGTGCAG,9630 fluorescence intensity (a.u.)

row,Sequence,binding signal
1,GTACCTCTTGTCCGTATGGCCGCATGTGTCATCCGCGTCGCGGAGTCACCTAGTGCAG,9570 fluorescence intensity (a.u.)
2,TCCCTTTATTCTTTATGCAAATGTCTCTTTCCTTTCAATCCGGAGTCACCTAGTGCAG,10800 fluorescence intensity (a.u.)
3,GACCATACGTACCTCTTTGCCATAGACCTCACCAGTTGCGCGGAGTCACCTAGTGCAG,8930 fluorescence intensity (a.u.)
4,AATCGGATTGTGCGATGATCAACTTGGCCTCTTTTCATGCCGGAGTCACCTAGTGCAG,8060 fluorescence intensity (a.u.)
5,AAACAGATTAAAATTATCTCGGTTTCTATTAGCATGTTTTCGGAGTCACCTAGTGCAG,8540 fluorescence intensity (a.u.)
6,ATCATTCAGGTACATCAATTACCAACCACTGAATGTTTGTCGGAGTCACCTAGTGCAG,8210 fluorescence intensity (a.u.)
7,CGCTCGCCATCTTCCCGACCCTCGCCGGCCGCCTTGTCACCGGAGTCACCTAGTGCAG,8450 fluorescence intensity (a.u.)
8,CTTCTTCTCGGCTGATTGCTCTTTTTTCCCAGATTTGTCTCGGAGTCACCTAGTGCAG,13100 fluorescence intensity (a.u.)
9,GATCCGCGAGATCTCCGTCGCCGGCTCATGCCACTGGTCGCGGAGTCACCTAGTGCAG,8240 fluorescence intensity (a.u.)
10,AACTTGCGAAAATTTGACTATCAATTAGCTGGGCGATTGACGGAGTCACCTAGTGCAG,32700 fluorescence intensity (a.u.)
11,GGAATCCTTTCCACCATCCCACTTCCACCTTTCTTCTTCTCGGAGTCACCTAGTGCAG,8970 fluorescence intensity (a.u.)
12,GTTGGTGTCCATCCGTTTCCGAGCCATTTTCATCCCTAATCGGAGTCACCTAGTGCAG,11600 fluorescence intensity (a.u.)
13,TTCACCTACCCTTTACATTACCACTCGACTACACATTTATCGGAGTCACCTAGTGCAG,9160 fluorescence intensity (a.u.)
14,GCCCACATGCACGTACTTAACGCCCACCTGCACTCGACGTCGGAGTCACCTAGTGCAG,9370 fluorescence intensity (a.u.)
15,GCGAACCTGCCTCCTCGTCGTCGTCGTGGTCTATATATTACGGAGTCACCTAGTGCAG,9230 fluorescence intensity (a.u.)
16,CAGCAAGAGTTTCCACCTCTACACAATCCTGTTGTATCTACGGAGTCACCTAGTGCAG,8240 fluorescence intensity (a.u.)
17,TTGCTGCATCCGTTACTCCGTTAGGGTTGGGGAATTTGGTCGGAGTCACCTAGTGCAG,12900 fluorescence intensity (a.u.)
18,TGTCAGTTGACCGCTATTAATTAGTTCAGGCCGTGTTTAGCGGAGTCACCTAGTGCAG,9060 fluorescence intensity (a.u.)
19,CGGGATACAATATACTATTAGGGGTGAAAATGAATTAGATCGGAGTCACCTAGTGCAG,9250 fluorescence intensity (a.u.)
20,GCCTTAACCTTGATACTGATAACAGTTTGTTTGTTCCCAACGGAGTCACCTAGTGCAG,10800 fluorescence intensity (a.u.)
21,GGTTGGTCCTGGTTTTGGAGGTAGGTAAATTTTGGGACCACGGAGTCACCTAGTGCAG,9300 fluorescence intensity (a.u.)

row,Sequence,binding signal
1,GTTTGATTTTGGGAGCTCCAGTTGTTTTCTTCTCCTCCTTCGGAGTCACCTAGTGCAG,10100 fluorescence intensity (a.u.)
2,GGAGGTGGTGCAGAATGCCTGGGAGTCGGTGCAGTAGGGGCGGAGTCACCTAGTGCAG,8450 fluorescence intensity (a.u.)
3,ATTCCGATGGCTATATACGGTATTCCGCGTGCACACTAACCGGAGTCACCTAGTGCAG,10500 fluorescence intensity (a.u.)
4,TTCTTTCTTTTTTCTTTCTCTCCAAGGCTAATGAATGTTTCGGAGTCACCTAGTGCAG,8560 fluorescence intensity (a.u.)
5,TAGGAACCTATTTTCCATGCGCACACATCTCAAAATGTTACGGAGTCACCTAGTGCAG,8920 fluorescence intensity (a.u.)
6,TAATAGGTGGGCGGTGGATTTTTCGCCGTGGTGCTCTTTACGGAGTCACCTAGTGCAG,9870 fluorescence intensity (a.u.)
7,CTCACTTCGACCCCTGTTCGCTTCACCCGCCGCCGCCATGCGGAGTCACCTAGTGCAG,8220 fluorescence intensity (a.u.)
8,GTATTTTGCAATCCTCTGTTTTACACTTGCATTCCTATCCCGGAGTCACCTAGTGCAG,11900 fluorescence intensity (a.u.)
9,CCCACCCACCTCTCCACATTCCGTTCCGCTGGCGTCCAAACGGAGTCACCTAGTGCAG,9280 fluorescence intensity (a.u.)
10,CTCTTCCACAAGATTACCTCCATGCATTGGATGTTGTGTTCGGAGTCACCTAGTGCAG,8030 fluorescence intensity (a.u.)
11,GGGTTTTCCACGTTAAATCTCGTGTCTTCTGTGTTTGATCCGGAGTCACCTAGTGCAG,12000 fluorescence intensity (a.u.)
12,AGAGTCGGTCACTTTCTCGGTCGGGTTCTCGGGTCACCGTCGGAGTCACCTAGTGCAG,11400 fluorescence intensity (a.u.)
13,TTTCTTCTGAATTCGATGTCTGATGCATTTATCGTTTCTCCGGAGTCACCTAGTGCAG,13000 fluorescence intensity (a.u.)
14,GATAATCCTTGATCCACCATGTCGTGTGAATTTTTGTTCACGGAGTCACCTAGTGCAG,8190 fluorescence intensity (a.u.)
15,TAGTTCAGTGCCGTCTCCTTCATGTAATTCTCTTCACTTTCGGAGTCACCTAGTGCAG,9290 fluorescence intensity (a.u.)
16,TCTTACGAGTAGTGGCAATGTCACCCTCACACTTTTTCTTCGGAGTCACCTAGTGCAG,8770 fluorescence intensity (a.u.)
17,GTCTTATATGGTTTATAAATTGTTGCCTTTTAAACCTTAACGGAGTCACCTAGTGCAG,8310 fluorescence intensity (a.u.)
18,AAATTTTACTTGTTTTTCCATGTCGGCATTGTGCCTCTCACGGAGTCACCTAGTGCAG,8400 fluorescence intensity (a.u.)
19,TCTCTTCTTTTTGACCTCTTCTCTCTTATCTTCTCTTCTTCGGAGTCACCTAGTGCAG,9000 fluorescence intensity (a.u.)
20,TTTCTCAACCGTGCTAGATCTTGCCTCTGCGTAGCGTAAGCGGAGTCACCTAGTGCAG,8910 fluorescence intensity (a.u.)
21,ACGCCACACCGCTCTCGCCCGCCGACGCCGCCTCTCCGCACGGAGTCACCTAGTGCAG,11900 fluorescence intensity (a.u.)

# 3 neighbouring entries already listed:
row,Sequence,binding signal
11,GGGTTTTCCACGTTAAATCTCGTGTCTTCTGTGTTTGATCCGGAGTCACCTAGTGCAG,12000 fluorescence intensity (a.u.)
12,AGAGTCGGTCACTTTCTCGGTCGGGTTCTCGGGTCACCGTCGGAGTCACCTAGTGCAG,11400 fluorescence intensity (a.u.)
13,TTTCTTCTGAATTCGATGTCTGATGCATTTATCGTTTCTCCGGAGTCACCTAGTGCAG,13000 fluorescence intensity (a.u.)

# Following part

row,Sequence,binding signal
1,CACCTCACCCTCACCCGCACACGCCGACACCCCGACGCGTCGGAGTCACCTAGTGCAG,9390 fluorescence intensity (a.u.)
2,GTGCCGTCGCCTCCCCTTCCCCGGCCTGCCCTCGGTTTCGCGGAGTCACCTAGTGCAG,9310 fluorescence intensity (a.u.)
3,TCATTGCCTCTCCTCACCAAAGGGGCCGTCCTCTTCCATCCGGAGTCACCTAGTGCAG,8720 fluorescence intensity (a.u.)
4,ACTCGGAGTCGTCTCCTCCCTCCGTCAGCGCTTCCATCTTCGGAGTCACCTAGTGCAG,8880 fluorescence intensity (a.u.)
5,ACCATGTTGAATTTCTTTGCCATTTGCCTCTTGTTTTTTCCGGAGTCACCTAGTGCAG,12200 fluorescence intensity (a.u.)
6,CCTCGCCACCGCACGCGTCGCCCCGGCGCCGCTTCCCCTGCGGAGTCACCTAGTGCAG,9290 fluorescence intensity (a.u.)
7,TGGGTATATTTTCACATGCATCCTTTAATTGTCACTTTTGCGGAGTCACCTAGTGCAG,11800 fluorescence intensity (a.u.)
8,GCACGTACGCCCATCTTTGTCAGTTTTCTCTTGGCACCAACGGAGTCACCTAGTGCAG,10500 fluorescence intensity (a.u.)
9,AAATACTCCCTCCGTATTTTAATGTATGACACCGTTGACTCGGAGTCACCTAGTGCAG,10300 fluorescence intensity (a.u.)
10,TTGCGCCTCGCCGCCGATATCTCCCACCCGCGTCGCTGCTCGGAGTCACCTAGTGCAG,10500 fluorescence intensity (a.u.)
11,ACTGTTTACAGTACGGCACAACCGTTTTAAGCTACTTTTCCGGAGTCACCTAGTGCAG,9360 fluorescence intensity (a.u.)
12,CTATGGAGAGAGTATCACATTTTATTCTTCTAGATATACTCGGAGTCACCTAGTGCAG,8610 fluorescence intensity (a.u.)
13,AGCTAGAATTGACCACAAGCTTGTACTTCCGGCATGTATTCGGAGTCACCTAGTGCAG,9270 fluorescence intensity (a.u.)
14,GACATAACCACATAACCACACGACCTTGCATTCGGGTTGACGGAGTCACCTAGTGCAG,8220 fluorescence intensity (a.u.)
15,TCCATAAGAGTCATTCTACTTTCGAAAAGAACATGCCAACCGGAGTCACCTAGTGCAG,8120 fluorescence intensity (a.u.)
16,AACTTCCTTCACGGGCTGCAGCTTCGCGCCACGAGCCTTTCGGAGTCACCTAGTGCAG,8060 fluorescence intensity (a.u.)
17,TCTTCATCATTTTTTTATTCAATCCATTCTATGCCATCAACGGAGTCACCTAGTGCAG,8170 fluorescence intensity (a.u.)
18,TCGGGTCTGTGCTGTGCTCTTCCTAATTGGTTTGATTTTACGGAGTCACCTAGTGCAG,10300 fluorescence intensity (a.u.)
19,TCTCTTACTACCTTCCACGCTTCCATCCCACGTCTTCTCCCGGAGTCACCTAGTGCAG,8560 fluorescence intensity (a.u.)
20,GTGGCTCTATACTATCATCCGCGTTATTTCCTGTGCATAACGGAGTCACCTAGTGCAG,11500 fluorescence intensity (a.u.)
21,GTCTCGGTCTTTTCGATCTCGGTCTTTTCGGTTCGGTCTTCGGAGTCACCTAGTGCAG,9340 fluorescence intensity (a.u.)
